Assay results taken from patent US6844320B1, “Treatment of preeclampsia, toxemia and preterm labor with combination of progestational agent and a nitric oxide synthase substrate and/or donor” (Board of Regents, The University of Texas System, priority 1993, dated 2005).

Tested on: pregnant rats
Experiment: L-NAME infusion to pregnant rats: delivery and pups delivered
Assay type: in vivo
From the text: The data in Table 2 below show the delivery and the pups delivered of L-NAME infusion to pregnant rats.

COC(=O)[C@@H](N)CCCNC(=N)N[N+](=O)[O-] [L-NAME, N^G-nitro-L-arginine methyl ester]
Total # of pups (L-NAME 25 mg/day, 9 animals): 65 | Total # of pups (L-NAME 50 mg/day, 10 animals): 56
